Data taken from the supplement of paper PMC10849652.
The other results are listed elsewhere or left out. Residues, ends and D or L forms follow the SMILES beside them. *: point of attachment. Cbz = O=C(OCc1ccccc1)*

Protein sequences, listed by entry. Tags and fused reporters are not part of them. Lines headed by an entry give the natural chain unless they say otherwise; changes in a name come on top.
UniProt Q15599: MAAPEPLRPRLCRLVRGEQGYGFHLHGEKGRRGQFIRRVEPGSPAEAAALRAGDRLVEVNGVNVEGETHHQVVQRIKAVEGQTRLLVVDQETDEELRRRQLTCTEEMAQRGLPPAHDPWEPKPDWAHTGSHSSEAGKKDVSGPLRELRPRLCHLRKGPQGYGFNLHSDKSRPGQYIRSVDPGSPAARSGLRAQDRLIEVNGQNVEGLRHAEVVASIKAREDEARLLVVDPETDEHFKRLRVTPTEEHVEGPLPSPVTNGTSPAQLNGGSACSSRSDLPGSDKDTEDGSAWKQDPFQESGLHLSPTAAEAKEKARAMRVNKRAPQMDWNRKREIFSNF
UniProt Q16637, whole entry, looked up: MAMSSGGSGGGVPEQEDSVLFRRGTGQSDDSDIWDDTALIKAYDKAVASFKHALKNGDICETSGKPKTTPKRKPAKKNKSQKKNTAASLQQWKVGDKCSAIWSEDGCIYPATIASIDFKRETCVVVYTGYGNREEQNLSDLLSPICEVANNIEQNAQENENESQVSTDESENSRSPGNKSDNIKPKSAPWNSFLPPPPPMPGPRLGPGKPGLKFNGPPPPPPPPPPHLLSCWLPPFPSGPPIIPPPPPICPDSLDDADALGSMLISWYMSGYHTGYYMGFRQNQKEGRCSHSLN
UniProt P62306, whole entry, looked up: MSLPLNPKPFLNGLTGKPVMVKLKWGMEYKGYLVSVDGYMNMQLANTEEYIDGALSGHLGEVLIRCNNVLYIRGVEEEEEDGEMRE
UniProt P62316, whole entry, looked up: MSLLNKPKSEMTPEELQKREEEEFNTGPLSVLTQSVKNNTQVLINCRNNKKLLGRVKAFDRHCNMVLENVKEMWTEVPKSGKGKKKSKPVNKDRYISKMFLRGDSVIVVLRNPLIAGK
UniProt P08621, whole entry, looked up: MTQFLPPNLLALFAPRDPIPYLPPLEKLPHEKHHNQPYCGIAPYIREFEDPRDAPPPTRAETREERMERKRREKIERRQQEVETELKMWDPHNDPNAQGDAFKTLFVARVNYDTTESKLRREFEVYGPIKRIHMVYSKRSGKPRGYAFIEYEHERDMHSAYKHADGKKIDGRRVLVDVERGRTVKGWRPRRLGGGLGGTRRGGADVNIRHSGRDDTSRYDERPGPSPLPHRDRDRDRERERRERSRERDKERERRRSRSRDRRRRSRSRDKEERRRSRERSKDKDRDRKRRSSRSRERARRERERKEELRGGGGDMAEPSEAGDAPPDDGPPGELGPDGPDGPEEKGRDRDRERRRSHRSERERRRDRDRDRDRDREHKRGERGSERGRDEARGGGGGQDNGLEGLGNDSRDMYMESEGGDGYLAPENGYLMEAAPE
UniProt Q9Y5X2: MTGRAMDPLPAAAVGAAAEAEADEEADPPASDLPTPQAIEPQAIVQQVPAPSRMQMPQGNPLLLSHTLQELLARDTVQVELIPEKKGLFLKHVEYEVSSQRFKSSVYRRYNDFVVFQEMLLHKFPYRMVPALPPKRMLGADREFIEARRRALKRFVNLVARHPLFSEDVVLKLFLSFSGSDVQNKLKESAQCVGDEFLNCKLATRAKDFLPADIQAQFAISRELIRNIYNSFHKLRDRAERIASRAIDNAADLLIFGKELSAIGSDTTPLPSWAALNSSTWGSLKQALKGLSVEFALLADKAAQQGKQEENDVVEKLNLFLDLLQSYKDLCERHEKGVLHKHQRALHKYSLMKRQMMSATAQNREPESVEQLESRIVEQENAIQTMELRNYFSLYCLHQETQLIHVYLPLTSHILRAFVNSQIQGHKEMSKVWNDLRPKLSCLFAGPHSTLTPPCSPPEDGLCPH
UniProt Q96H20: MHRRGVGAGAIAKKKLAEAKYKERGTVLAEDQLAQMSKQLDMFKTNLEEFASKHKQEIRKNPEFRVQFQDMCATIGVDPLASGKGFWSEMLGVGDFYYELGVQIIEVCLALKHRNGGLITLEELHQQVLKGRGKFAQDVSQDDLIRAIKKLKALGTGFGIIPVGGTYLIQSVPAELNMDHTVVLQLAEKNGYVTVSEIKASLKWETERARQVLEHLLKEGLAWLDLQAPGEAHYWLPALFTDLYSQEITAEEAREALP
UniProt Q96EX1: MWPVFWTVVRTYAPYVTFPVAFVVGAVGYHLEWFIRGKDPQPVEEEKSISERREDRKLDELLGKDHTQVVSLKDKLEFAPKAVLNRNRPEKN
UniProt Q14BN4: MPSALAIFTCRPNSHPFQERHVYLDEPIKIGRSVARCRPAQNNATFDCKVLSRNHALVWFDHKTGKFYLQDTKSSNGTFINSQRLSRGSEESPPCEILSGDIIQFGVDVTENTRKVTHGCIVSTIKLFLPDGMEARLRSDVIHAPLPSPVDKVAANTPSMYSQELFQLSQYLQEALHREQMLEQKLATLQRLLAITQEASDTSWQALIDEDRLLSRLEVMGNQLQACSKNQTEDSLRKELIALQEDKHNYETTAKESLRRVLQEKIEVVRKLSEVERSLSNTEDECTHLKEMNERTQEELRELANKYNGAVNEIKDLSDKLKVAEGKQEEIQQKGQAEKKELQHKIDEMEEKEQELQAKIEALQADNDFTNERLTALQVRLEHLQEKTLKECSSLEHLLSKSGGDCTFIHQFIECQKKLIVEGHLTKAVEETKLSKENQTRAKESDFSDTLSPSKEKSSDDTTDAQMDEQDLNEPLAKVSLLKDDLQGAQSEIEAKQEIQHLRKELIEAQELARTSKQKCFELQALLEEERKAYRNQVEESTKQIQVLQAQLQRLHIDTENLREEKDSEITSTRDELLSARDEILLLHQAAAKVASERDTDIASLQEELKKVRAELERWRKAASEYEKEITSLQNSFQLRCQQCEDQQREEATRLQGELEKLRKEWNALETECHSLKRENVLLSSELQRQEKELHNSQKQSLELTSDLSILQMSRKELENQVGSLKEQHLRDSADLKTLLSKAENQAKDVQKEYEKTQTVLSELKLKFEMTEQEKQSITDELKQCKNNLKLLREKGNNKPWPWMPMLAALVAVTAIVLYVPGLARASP
UniProt Q92922, whole entry, looked up: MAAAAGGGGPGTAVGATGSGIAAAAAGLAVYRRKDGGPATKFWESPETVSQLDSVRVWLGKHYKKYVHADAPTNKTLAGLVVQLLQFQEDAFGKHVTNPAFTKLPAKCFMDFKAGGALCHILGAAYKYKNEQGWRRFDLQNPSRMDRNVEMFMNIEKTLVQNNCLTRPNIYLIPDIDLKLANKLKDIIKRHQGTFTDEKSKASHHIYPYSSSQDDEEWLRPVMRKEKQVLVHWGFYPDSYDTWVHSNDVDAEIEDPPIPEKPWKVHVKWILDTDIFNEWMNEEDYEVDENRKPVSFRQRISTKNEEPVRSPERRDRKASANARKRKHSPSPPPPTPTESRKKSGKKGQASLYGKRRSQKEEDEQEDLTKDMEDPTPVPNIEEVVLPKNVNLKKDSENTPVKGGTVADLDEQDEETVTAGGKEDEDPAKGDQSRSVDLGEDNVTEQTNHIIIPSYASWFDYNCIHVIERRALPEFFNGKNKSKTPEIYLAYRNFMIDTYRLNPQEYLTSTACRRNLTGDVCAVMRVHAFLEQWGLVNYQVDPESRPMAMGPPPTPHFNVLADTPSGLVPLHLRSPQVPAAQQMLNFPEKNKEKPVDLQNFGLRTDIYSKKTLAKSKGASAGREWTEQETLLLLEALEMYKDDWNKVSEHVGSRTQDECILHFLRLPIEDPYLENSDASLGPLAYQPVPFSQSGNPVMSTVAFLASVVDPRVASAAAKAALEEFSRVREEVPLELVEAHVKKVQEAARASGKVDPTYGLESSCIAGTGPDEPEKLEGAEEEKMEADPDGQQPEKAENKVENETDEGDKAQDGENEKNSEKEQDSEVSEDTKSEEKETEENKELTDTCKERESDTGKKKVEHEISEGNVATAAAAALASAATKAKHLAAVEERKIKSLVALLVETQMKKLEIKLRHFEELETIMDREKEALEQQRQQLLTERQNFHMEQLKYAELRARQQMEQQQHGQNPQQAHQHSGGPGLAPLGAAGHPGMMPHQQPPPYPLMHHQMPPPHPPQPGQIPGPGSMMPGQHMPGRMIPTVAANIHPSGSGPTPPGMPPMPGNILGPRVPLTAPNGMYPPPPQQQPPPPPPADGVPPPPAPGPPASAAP
UniProt O60906: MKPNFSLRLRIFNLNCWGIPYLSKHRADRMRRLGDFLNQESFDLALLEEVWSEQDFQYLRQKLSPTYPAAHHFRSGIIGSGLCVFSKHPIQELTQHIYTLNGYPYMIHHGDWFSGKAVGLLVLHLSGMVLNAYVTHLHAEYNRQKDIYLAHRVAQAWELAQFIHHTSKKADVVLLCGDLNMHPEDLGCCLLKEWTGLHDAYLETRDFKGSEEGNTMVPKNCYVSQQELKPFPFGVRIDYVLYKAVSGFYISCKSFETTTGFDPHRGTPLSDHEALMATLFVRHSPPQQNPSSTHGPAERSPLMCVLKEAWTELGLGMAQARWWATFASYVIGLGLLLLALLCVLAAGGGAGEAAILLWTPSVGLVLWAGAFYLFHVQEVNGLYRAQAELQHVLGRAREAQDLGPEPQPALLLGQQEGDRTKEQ
UniProt Q96SB8: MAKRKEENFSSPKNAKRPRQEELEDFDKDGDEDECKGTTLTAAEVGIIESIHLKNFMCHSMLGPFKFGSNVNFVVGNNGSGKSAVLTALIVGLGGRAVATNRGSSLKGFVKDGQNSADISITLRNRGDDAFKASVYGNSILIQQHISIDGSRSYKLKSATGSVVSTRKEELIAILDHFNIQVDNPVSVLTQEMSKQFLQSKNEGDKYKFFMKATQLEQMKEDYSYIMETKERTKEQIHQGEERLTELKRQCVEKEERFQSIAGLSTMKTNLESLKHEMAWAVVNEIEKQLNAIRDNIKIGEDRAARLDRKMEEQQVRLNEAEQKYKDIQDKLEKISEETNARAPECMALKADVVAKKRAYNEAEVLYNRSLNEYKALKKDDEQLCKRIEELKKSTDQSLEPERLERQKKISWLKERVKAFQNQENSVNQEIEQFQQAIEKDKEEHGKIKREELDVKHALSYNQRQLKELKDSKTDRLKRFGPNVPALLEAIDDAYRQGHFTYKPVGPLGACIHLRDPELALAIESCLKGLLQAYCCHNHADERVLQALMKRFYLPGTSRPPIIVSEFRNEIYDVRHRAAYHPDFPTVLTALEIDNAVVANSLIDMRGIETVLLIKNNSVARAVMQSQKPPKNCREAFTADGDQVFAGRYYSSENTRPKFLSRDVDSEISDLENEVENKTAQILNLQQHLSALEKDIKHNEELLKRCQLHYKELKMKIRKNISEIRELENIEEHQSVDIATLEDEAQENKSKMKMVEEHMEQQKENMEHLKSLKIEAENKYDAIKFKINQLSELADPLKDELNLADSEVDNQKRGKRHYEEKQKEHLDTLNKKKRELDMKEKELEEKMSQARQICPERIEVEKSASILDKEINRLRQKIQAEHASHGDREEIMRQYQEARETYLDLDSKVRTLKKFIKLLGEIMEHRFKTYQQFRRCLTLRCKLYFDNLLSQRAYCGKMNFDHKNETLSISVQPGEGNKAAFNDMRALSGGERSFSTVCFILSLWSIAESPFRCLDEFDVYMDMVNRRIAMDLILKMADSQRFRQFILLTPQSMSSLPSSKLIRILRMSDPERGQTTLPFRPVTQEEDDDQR
UniProt Q96KF7: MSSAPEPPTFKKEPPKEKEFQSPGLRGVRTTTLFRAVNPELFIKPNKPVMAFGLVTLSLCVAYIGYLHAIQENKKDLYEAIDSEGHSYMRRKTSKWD
UniProt Q7KZF4: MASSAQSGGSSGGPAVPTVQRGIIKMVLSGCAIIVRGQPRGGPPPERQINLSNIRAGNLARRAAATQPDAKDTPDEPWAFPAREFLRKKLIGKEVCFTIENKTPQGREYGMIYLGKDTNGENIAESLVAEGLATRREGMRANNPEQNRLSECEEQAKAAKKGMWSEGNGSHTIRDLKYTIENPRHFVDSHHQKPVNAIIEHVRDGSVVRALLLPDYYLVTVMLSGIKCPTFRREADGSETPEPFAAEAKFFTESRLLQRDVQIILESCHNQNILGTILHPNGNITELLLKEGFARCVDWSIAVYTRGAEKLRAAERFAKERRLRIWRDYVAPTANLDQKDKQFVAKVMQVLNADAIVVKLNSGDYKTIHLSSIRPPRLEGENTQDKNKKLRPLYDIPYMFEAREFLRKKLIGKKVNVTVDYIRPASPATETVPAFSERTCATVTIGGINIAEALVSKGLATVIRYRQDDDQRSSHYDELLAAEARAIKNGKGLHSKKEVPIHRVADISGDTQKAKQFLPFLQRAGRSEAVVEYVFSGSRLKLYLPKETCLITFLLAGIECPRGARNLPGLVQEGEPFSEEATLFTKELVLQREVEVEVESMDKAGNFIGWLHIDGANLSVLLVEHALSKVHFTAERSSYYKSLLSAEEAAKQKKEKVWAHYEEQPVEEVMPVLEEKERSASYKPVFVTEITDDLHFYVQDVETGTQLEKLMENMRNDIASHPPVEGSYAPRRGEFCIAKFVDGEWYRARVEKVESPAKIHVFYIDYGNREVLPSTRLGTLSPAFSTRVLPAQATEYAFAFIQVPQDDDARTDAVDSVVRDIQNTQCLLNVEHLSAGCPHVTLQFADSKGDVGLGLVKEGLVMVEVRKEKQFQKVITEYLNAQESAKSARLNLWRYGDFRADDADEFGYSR

Experiments:
Assay in all cases: log2 fold change, soluble protein after heating vs DMSO (PISA); higher = thermal stabilisation; K562 cells, 10 uM, 30 min; active = over 0.2 and 3.5 SD of the protein, either way, in both replicates (recomputed)
[1] = compound: C1COCCN1CCN2C3=CC=CC=C3N=C2NC(=O)C4=CC(=CC=C4)[N+](=O)[O-] [IRAK-1-4 Inhibitor I]
Outline: (§1)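 Quantification of soluble protein used TMTpro 16plex LC-MS/MS, with channel sums equalised. Samples were the supernatant after 21,000xg for 90 min of pooled aliquots from K562 cells (2×10^6 cells/mL) treated with 10 μM compound for 30 min, heated for 3 min over 48°C-58°C, and extracted in PBS with 0.5% NP-40 at 4°C. Values, from duplicates, describe thermal stability against control samples on a log2 fold-change scale.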

[2] = compound: C=CC(=O)N1CCC[C@@H](n2nc(-c3ccc(Oc4ccccc4)cc3)c3c(N)ncnc32)C1 [ibrutinib]
Outline: as §1

[3] = compound: CC(=O)c1cnc2ccc(-c3cc(Cl)c(O)c(Cl)c3)nc2c1N[C@H]1CC[C@H](CN(C)C)CC1
Outline: as §1

[4] = compound: CC(C)(C)Cn1c(N)nc2ccc(-c3[nH]c(C(C)(C)C)nc3-c3ccc(F)cc3)nc21 [ralimetinib]
Outline: as §1

[5] = compound: CC(C)(O)CC(=O)NCCn1ccc2ncnc(Nc3ccc(Oc4cccc(C(F)(F)F)c4)c(Cl)c3)c21
Outline: as §1

[6] = compound: CC(C)C1=C2N=C(C=C(N2N=C1)NCC3=CC=CC=C3)NCCCCCCN
Outline: as §1

[7] = compound: CC(C)C[C@@H](C=O)NC(=O)[C@H](CC(C)C)NC(=O)[C@H](CC(C)C)NC(=O)OCc1ccccc1
Outline: as §1

[8] = compound: CC(C)N(C[C@H]1O[C@@H](n2cnc3c(N)ncnc32)[C@H](O)[C@@H]1O)[C@H]1C[C@@H](CCc2nc3cc(C(C)(C)C)ccc3[nH]2)C1 [pinometostat]
Outline: as §1

[9] = compound: CC1=C(C(CC(=O)N1)C2=CC=C(C=C2)C(F)(F)F)C(=O)NC3=C(C=C4C(=C3)C=NN4)F
Outline: as §1

[10] = compound: CC1=C(C2=C(C=C1)C(=O)C3=CC=CC=C3N2CCCN)C
Outline: as §1

Measured: log2 fold change

SMNDC1 (UniProt O75940)
inactive: [1] 0.029 | [2] 0.046 | [3] 0.011 | [4] 0.06 | [5] 0.036 | [6] 0.159 | [7] 0.015 | [8] 0.001 | [9] -0.014 | [10] 0.122

SLC9A3R2 (UniProt Q15599)
inactive: [1] 0.053 | [2] 0.064 | [3] -0.043 | [4] -0.032 | [5] 0.011 | [6] 0.053 | [7] -0.004 | [8] 0.035 | [9] 0.023 | [10] 0.006

SMN1 (UniProt Q16637)
inactive: [1] -0.17 | [2] 0.037 | [3] -0.121 | [4] 0.15 | [5] -0.015 | [6] -0.298 | [7] 0.048 | [8] 0.267 | [9] -0.044 | [10] -0.282

SNRPF (UniProt P62306)
inactive: [1] 0.06 | [2] 0.136 | [3] 0.056 | [4] -0.011 | [5] -0.04 | [6] 0.197 | [7] 0.004 | [8] -0.012 | [9] 0.269 | [10] -0.077

Random excerpt: two records from the list
SLC9A3R2 (UniProt Q15599)
inactive: [1] 0.053 | [2] 0.064 | [3] -0.043 | [4] -0.032 | [5] 0.011 | [6] 0.053 | [7] -0.004 | [8] 0.035 | [9] 0.023 | [10] 0.006

SNRPF (UniProt P62306)
inactive: [1] 0.06 | [2] 0.136 | [3] 0.056 | [4] -0.011 | [5] -0.04 | [6] 0.197 | [7] 0.004 | [8] -0.012 | [9] 0.269 | [10] -0.077

Next part

SON isoform 9 (UniProt P18583)
inactive: [1] 0.115 | [2] -0.042 | [3] 0 | [4] 0.228 | [5] 0.173 | [6] -0.23 | [7] 0 | [8] 0.075 | [9] -0.067 | [10] 0.019

SNCA (UniProt P37840)
inactive: [1] 0.024 | [2] -0.023 | [3] 0.028 | [4] -0.013 | [5] -0.018 | [6] 0.085 | [7] -0.048 | [8] -0.05 | [9] 0.012 | [10] 0

SNAPIN (UniProt O95295)
inactive: [1] 0.023 | [2] -0.008 | [3] 0.011 | [4] -0.07 | [5] -0.095 | [6] 0.013 | [7] -0.029 | [8] -0.063 | [9] 0.025 | [10] 0.151

SMC2 (UniProt O95347)
inactive: [1] -0.052 | [2] -0.054 | [3] 0.061 | [4] 0.034 | [5] -0.075 | [6] -0.083 | [7] 0.057 | [8] 0.004 | [9] -0.01 | [10] -0.017

SNRPD2 (UniProt P62316)
inactive: [1] 0.02 | [2] -0.01 | [3] 0.081 | [4] -0.015 | [5] 0.089 | [6] 0.184 | [7] 0.002 | [8] -0.023 | [9] -0.004 | [10] 0.017

SMU1 (UniProt Q2TAY7)
inactive: [1] 0.013 | [2] -0.065 | [3] -0.017 | [4] 0.007 | [5] -0.003 | [6] 0.021 | [7] 0 | [8] 0.022 | [9] 0 | [10] 0.047

SMARCC2 (UniProt Q8TAQ2)
inactive: [1] 0.064 | [2] 0.024 | [3] -0.116 | [4] 0.072 | [5] -0.092 | [6] -0.149 | [7] 0.028 | [8] -0.126 | [9] 0.05 | [10] 0.02

SNRNP70 (UniProt P08621)
inactive: [1] -0.076 | [2] 0.04 | [3] -0.025 | [4] 0.043 | [5] 0.122 | [6] 0.308 | [7] 0.089 | [8] 0.177 | [9] -0.017 | [10] 0.348

SNX8 (UniProt Q9Y5X2)
inactive: [1] 0.067 | [2] 0.017 | [3] -0.083 | [4] -0.04 | [5] -0.046 | [6] 0.028 | [7] 0.042 | [8] -0.007 | [9] 0.002 | [10] -0.038

SNF8 (UniProt Q96H20)
inactive: [1] 0.039 | [2] 0.026 | [3] -0.032 | [4] -0.021 | [5] -0.023 | [6] 0.022 | [7] -0.018 | [8] -0.029 | [9] 0.04 | [10] 0.02

SNRPG (UniProt P62308)
inactive: [1] 0.008 | [2] 0.031 | [3] 0.084 | [4] 0.021 | [5] 0.042 | [6] 0.175 | [7] 0.029 | [8] 0.012 | [9] -0.018 | [10] 0.063

SMIM12 (UniProt Q96EX1)
inactive: [1] 0.108 | [2] 0.009 | [3] 0.124 | [4] 0.07 | [5] 0.015 | [6] 0.013 | [7] 0.037 | [8] 0.035 | [9] -0.012 | [10] 0.093

SNAP29 (UniProt O95721)
inactive: [1] 0.03 | [2] -0.014 | [3] 0.025 | [4] -0.015 | [5] -0.001 | [6] -0.004 | [7] 0.019 | [8] -0.061 | [9] 0.011 | [10] 0.005

SLC9A3R1 (UniProt O14745)
inactive: [1] 0.071 | [2] 0.024 | [3] 0.018 | [4] -0.015 | [5] -0.012 | [6] 0.05 | [7] 0.014 | [8] -0.073 | [9] 0.022 | [10] -0.011

SNCG (UniProt O76070)
inactive: [1] 0.043 | [2] 0.017 | [3] 0.038 | [4] -0.066 | [5] -0.009 | [6] 0.079 | [7] 0.022 | [8] -0.034 | [9] 0.008 | [10] -0.012

SLMAP (UniProt Q14BN4)
inactive: [1] -0.063 | [2] -0.058 | [3] -0.031 | [4] 0.032 | [5] -0.004 | [6] -0.058 | [7] 0.062 | [8] 0.045 | [9] 0.009 | [10] 0.035

SMARCC1 (UniProt Q92922)
inactive: [1] -0.126 | [2] 0.043 | [3] -0.025 | [4] 0.062 | [5] -0.13 | [6] -0.105 | [7] 0.177 | [8] 0.086 | [9] 0.144 | [10] 0.057

SNX14 (UniProt Q9Y5W7)
inactive: [1] 0.077 | [2] -0.099 | [3] -0.156 | [4] -0.049 | [5] -0.059 | [6] -0.042 | [7] -0.025 | [8] 0.016 | [9] 0.049 | [10] 0.073

SMPD2 (UniProt O60906)
inactive: [1] 0.162 | [2] 0.157 | [3] 0.035 | [4] -0.044 | [5] -0.009 | [6] -0.08 | [7] 0.001 | [8] 0.042 | [9] -0.032 | [10] 0.13

SMC6 isoform 2 (UniProt Q96SB8)
inactive: [1] -0.003 | [2] 0.007 | [3] -0.036 | [4] 0.051 | [5] -0.06 | [6] 0.105 | [7] 0.084 | [8] 0.042 | [9] -0.028 | [10] -0.268

SMIM8 (UniProt Q96KF7)
inactive: [1] 0.056 | [2] -0.013 | [3] 0.025 | [4] -0.112 | [5] 0.04 | [6] 0.016 | [7] 0.052 | [8] -0.08 | [9] -0.027 | [10] 0.008

SMIM26, A0A096LP01
inactive: [1] 0.096 | [2] -0.043 | [3] -0.014 | [4] -0.017 | [5] -0.099 | [6] 0.039 | [7] 0.012 | [8] -0.057 | [9] 0.003 | [10] -0.052

SND1 (UniProt Q7KZF4)
inactive: [1] -0.219 | [2] -0.007 | [3] 0.175 | [4] 0.373 | [5] 0.13 | [6] -0.147 | [7] 0.329 | [8] 0.672 | [9] 0.007 | [10] 0.065

SMS (UniProt P52788)
inactive: [1] 0.024 | [2] 0.034 | [3] 0.018 | [4] -0.069 | [5] -0.016 | [6] 0.02 | [7] -0.079 | [8] -0.085 | [9] 0.044 | [10] 0.028
